These are yes or no findings as the source states them, for the method shown. Binding seen in cells or lysates may run through a third protein. A yes stands for co-enrichment or nearness to the bait. Other partners may have been found.
B1: Heterogeneous nuclear ribonucleoprotein R (protein, UniProt O43390 1-633)
chain: MANQVNGNAVQLKEEEEPMDTSSVTHTEHYKTLIEAGLPQKVAERLDEIFQTGLVAYVDLDERAIDALREFNEEGALSVLQQFKESDLSHVQNKSAFLCGVMKTYRQREKQGSKVQESTKGPDEAKIKALLERTGYTLDVTTGQRKYGGPPPDSVYSGVQPGIGTEVFVGKIPRDLYEDELVPLFEKAGPIWDLRLMMDPLSGQNRGYAFITFCGKEAAQEAVKLCDSYEIRPGKHLGVCISVANNRLFVGSIPKNKTKENILEEFSKVTEGLVDVILYHQPDDKKKNRGFCFLEYEDHKSAAQARRRLMSGKVKVWGNVVTVEWADPVEEPDPEVMAKVKVLFVRNLATTVTEEILEKSFSEFGKLERVKKLKDYAFVHFEDRGAAVKAMDEMNGKEIEGEEIEIVLAKPPDKKRKERQAARQASRSTAYEDYYYHPPPRMPPPIRGRGRGGGRGGYGYPPDYYGYEDYYDDYYGYDYHDYRGGYEDPYYGYDDGYAVRGRGGGRGGRGAPPPPRGRGAPPPRGRAGYSQRGAPLGPPRGSRGGRGGPAQQQRGRGSRGSRGNRGGNVGGKRKADGYNQPDSKRRQTNNQQNWGSQPIAQQPLQQGGDYSGNYGYNNDNQEFYQDTYGQQWK
B2: Heterogeneous nuclear ribonucleoprotein A0 (protein, UniProt Q13151 1-305)
chain: MENSQLCKLFIGGLNVQTSESGLRGHFEAFGTLTDCVVVVNPQTKRSRCFGFVTYSNVEEADAAMAASPHAVDGNTVELKRAVSREDSARPGAHAKVKKLFVGGLKGDVAEGDLIEHFSQFGTVEKAEIIADKQSGKKRGFGFVYFQNHDAADKAAVVKFHPIQGHRVEVKKAVPKEDIYSGGGGGGSRSSRGGRGGRGRGGGRDQNGLSKGGGGGYNSYGGYGGGGGGGYNAYGGGGGGSSYGGSDYGNGFGGFGSYSQHQSSYGPMKSGGGGGGGGSSWGGRSNSGPYRGGYGGGGGYGGSSF
B3: UPF0568 protein C14orf166 (protein, UniProt Q9Y224 1-244)
chain: MFRRKLTALDYHNPAGFNCKDETEFRNFIVWLEDQKIRHYKIEDRGNLRNIHSSDWPKFFEKYLRDVNCPFKIQDRQEAIDWLLGLAVRLEYGDNAEKYKDLVPDNSKTADNATKNAEPLINLDVNNPDFKAGVMALANLLQIQRHDDYLVMLKAIRILVQERLTQDAVAKANQTKEGLPVALDKHILGFDTGDAVLNEAAQILRLLHIEELRELQTKINEAIVAVQAIIADPKTDHRLGKVGR
B4: Cleavage stimulation factor subunit 1 (protein, UniProt Q05048 1-431)
chain: MYRTKVGLKDRQQLYKLIISQLLYDGYISIANGLINEIKPQSVCAPSEQLLHLIKLGMENDDTAVQYAIGRSDTVAPGTGIDLEFDADVQTMSPEASEYETCYVTSHKGPCRVATYSRDGQLIATGSADASIKILDTERMLAKSAMPIEVMMNETAQQNMENHPVIRTLYDHVDEVTCLAFHPTEQILASGSRDYTLKLFDYSKPSAKRAFKYIQEAEMLRSISFHPSGDFILVGTQHPTLRLYDINTFQCFVSCNPQDQHTDAICSVNYNSSANMYVTGSKDGCIKLWDGVSNRCITTFEKAHDGAEVCSAIFSKNSKYILSSGKDSVAKLWEISTGRTLVRYTGAGLSGRQVHRTQAVFNHTEDYVLLPDERTISLCCWDSRTAERRNLLSLGHNNIVRCIVHSPTNPGFMTCSDDFRARFWYRRSTTD
B5: Nuclear pore complex protein Nup93 (protein, UniProt Q8N1F7 1-819)
chain: MDTEGFGELLQQAEQLAAETEGISELPHVERNLQEIQQAGERLRSRTLTRTSQETADVKASVLLGSRGLDISHISQRLESLSAATTFEPLEPVKDTDIQGFLKNEKDNALLSAIEESRKRTFGMAEEYHRESMLVEWEQVKQRILHTLLASGEDALDFTQESEPSYISDVGPPGRSSLDNIEMAYARQIYIYNEKIVNGHLQPNLVDLCASVAELDDKSISDMWTMVKQMTDVLLTPATDALKNRSSVEVRMEFVRQALAYLEQSYKNYTLVTVFGNLHQAQLGGVPGTYQLVRSFLNIKLPAPLPGLQDGEVEGHPVWALIYYCMRCGDLLAASQVVNRAQHQLGEFKTWFQEYMNSKDRRLSPATENKLRLHYRRALRNNTDPYKRAVYCIIGRCDVTDNQSEVADKTEDYLWLKLNQVCFDDDGTSSPQDRLTLSQFQKQLLEDYGESHFTVNQQPFLYFQVLFLTAQFEAAVAFLFRMERLRCHAVHVALVLFELKLLLKSSGQSAQLLSHEPGDPPCLRRLNFVRLLMLYTRKFESTDPREALQYFYFLRDEKDSQGENMFLRCVSELVIESREFDMILGKLENDGSRKPGVIDKFTSDTKPIINKVASVAENKGLFEEAAKLYDLAKNADKVLELMNKLLSPVVPQISAPQSNKERLKNMALSIAERYRAQGISANKFVDSTFYLLLDLITFFDEYHSGHIDRAFDIIERLKLVPLNQESVEERVAAFRNFSDEIRHNLSEVLLATMNILFTQFKRLKGTSPSSSSRPQRVIEDRDSQLRSQARTLITFAGMIPYRTSGDTNARLVQMEVLMN
B6: Paraspeckle component 1 (protein, UniProt Q8WXF1 1-523)
chain: MMLRGNLKQVRIEKNPARLRALESAVGESEPAAAAAMALALAGEPAPPAPAPPEDHPDEEMGFTIDIKSFLKPGEKTYTQRCRLFVGNLPTDITEEDFKRLFERYGEPSEVFINRDRGFGFIRLESRTLAEIAKAELDGTILKSRPLRIRFATHGAALTVKNLSPVVSNELLEQAFSQFGPVEKAVVVVDDRGRATGKGFVEFAAKPPARKALERCGDGAFLLTTTPRPVIVEPMEQFDDEDGLPEKLMQKTQQYHKEREQPPRFAQPGTFEFEYASRWKALDEMEKQQREQVDRNIREAKEKLEAEMEAARHEHQLMLMRQDLMRRQEELRRLEELRNQELQKRKQIQLRHEEEHRRREEEMIRHREQEELRRQQEGFKPNYMENREQEMRMGDMGPRGAINMGDAFSPAPAGNQGPPPMMGMNMNNRATIPGPPMGPGPAMGPEGAANMGTPMMPDNGAVHNDRFPQGPPSQMGSPMGSRTGSETPQAPMSGVGPVSGGPGGFGRGSQGGNFEGPNKRRRY
B7: Heterogeneous nuclear ribonucleoprotein H3 (protein, UniProt P31942 1-346)
chain: MDWVMKHNGPNDASDGTVRLRGLPFGCSKEEIVQFFQGLEIVPNGITLTMDYQGRSTGEAFVQFASKEIAENALGKHKERIGHRYIEIFRSSRSEIKGFYDPPRRLLGQRPGPYDRPIGGRGGYYGAGRGSMYDRMRRGGDGYDGGYGGFDDYGGYNNYGYGNDGFDDRMRDGRGMGGHGYGGAGDASSGFHGGHFVHMRGLPFRATENDIANFFSPLNPIRVHIDIGADGRATGEADVEFVTHEDAVAAMSKDKNNMQHRYIELFLNSTPGGGSGMGGSGMGGYGRDGMDNQGGYGSVGRMGMGNNYSGGYGTPDGLGGYGRGGGGSGGYYGQGGMSGGGWRGMY

Amino acid sequences for entries named in this document (tags omitted).
UniProt Q14974: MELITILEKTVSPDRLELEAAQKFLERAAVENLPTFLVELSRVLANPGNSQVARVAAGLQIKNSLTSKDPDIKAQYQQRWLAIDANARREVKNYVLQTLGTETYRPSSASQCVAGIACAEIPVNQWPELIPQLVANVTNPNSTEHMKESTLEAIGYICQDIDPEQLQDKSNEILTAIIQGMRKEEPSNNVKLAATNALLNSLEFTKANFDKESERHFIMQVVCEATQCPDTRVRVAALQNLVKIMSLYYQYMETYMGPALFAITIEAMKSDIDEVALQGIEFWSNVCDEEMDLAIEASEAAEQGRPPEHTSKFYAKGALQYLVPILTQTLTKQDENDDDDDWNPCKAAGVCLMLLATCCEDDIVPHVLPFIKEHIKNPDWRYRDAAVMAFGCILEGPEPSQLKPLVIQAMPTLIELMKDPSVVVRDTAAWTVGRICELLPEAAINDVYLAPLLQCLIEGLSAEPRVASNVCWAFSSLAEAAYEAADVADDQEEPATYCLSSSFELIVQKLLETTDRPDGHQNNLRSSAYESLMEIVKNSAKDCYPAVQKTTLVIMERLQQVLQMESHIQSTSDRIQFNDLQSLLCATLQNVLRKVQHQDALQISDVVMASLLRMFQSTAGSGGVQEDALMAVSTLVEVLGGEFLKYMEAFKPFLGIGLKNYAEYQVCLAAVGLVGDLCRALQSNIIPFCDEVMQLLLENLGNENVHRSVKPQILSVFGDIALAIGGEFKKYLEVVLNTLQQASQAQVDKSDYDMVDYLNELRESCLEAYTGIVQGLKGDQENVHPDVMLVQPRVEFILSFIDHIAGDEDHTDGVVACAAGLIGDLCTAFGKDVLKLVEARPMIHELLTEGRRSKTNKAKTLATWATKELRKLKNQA
UniProt O00571: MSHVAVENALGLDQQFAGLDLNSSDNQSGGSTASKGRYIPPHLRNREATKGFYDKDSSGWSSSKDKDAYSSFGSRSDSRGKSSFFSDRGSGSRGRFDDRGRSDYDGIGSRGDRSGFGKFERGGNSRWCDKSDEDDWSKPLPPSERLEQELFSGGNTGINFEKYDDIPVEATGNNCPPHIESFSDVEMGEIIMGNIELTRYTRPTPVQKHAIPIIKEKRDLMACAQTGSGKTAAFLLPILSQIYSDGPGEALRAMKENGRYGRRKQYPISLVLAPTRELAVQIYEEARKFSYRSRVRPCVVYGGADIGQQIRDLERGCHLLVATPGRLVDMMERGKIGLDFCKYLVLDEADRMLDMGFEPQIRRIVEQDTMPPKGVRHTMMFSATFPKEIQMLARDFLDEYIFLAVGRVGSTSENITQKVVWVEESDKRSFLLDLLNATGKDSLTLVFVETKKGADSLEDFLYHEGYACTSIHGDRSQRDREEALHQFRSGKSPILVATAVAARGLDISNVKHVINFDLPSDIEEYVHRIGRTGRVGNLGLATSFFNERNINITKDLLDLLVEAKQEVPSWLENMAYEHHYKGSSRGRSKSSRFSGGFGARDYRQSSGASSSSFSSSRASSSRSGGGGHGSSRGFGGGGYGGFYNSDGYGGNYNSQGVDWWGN
UniProt Q15717: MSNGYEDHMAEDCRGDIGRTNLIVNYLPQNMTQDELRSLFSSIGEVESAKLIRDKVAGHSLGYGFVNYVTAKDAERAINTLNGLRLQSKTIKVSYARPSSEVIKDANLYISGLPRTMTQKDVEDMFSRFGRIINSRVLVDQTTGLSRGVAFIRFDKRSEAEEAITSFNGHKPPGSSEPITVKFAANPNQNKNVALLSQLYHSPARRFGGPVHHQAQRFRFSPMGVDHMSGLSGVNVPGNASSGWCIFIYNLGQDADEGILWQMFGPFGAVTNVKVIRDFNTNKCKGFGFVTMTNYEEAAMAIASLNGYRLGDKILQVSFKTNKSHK
UniProt Q96AE4: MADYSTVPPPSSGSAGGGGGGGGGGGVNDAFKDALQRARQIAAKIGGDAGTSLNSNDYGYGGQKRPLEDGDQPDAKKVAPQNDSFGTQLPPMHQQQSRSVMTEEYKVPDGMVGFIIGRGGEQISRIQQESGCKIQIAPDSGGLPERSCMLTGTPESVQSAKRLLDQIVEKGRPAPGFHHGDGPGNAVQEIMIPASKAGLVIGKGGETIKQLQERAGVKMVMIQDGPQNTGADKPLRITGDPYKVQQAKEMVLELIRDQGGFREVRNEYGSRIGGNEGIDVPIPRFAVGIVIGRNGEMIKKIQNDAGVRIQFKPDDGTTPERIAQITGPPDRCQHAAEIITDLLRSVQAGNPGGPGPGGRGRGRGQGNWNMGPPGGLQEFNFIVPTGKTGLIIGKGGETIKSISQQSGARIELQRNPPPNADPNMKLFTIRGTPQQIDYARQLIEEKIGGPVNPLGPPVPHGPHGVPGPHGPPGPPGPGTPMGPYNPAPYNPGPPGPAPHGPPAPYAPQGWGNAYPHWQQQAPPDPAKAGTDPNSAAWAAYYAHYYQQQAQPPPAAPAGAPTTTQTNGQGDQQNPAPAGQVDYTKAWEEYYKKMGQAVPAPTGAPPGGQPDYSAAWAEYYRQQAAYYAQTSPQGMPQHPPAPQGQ
UniProt Q96I24: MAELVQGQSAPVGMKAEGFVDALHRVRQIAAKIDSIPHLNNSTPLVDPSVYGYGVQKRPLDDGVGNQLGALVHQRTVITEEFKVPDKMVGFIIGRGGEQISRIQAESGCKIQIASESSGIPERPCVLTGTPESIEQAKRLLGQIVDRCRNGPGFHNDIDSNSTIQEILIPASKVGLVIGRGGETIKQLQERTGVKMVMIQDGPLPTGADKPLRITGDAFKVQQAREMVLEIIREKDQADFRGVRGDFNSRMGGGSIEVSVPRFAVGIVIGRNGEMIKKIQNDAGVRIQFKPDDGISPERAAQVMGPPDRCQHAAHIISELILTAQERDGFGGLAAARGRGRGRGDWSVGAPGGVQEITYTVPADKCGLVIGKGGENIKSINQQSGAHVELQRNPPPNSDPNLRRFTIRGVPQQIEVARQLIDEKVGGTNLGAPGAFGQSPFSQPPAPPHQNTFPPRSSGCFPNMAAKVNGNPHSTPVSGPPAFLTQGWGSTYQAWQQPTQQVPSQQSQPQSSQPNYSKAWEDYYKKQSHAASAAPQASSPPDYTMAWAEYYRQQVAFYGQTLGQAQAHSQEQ
UniProt Q92841: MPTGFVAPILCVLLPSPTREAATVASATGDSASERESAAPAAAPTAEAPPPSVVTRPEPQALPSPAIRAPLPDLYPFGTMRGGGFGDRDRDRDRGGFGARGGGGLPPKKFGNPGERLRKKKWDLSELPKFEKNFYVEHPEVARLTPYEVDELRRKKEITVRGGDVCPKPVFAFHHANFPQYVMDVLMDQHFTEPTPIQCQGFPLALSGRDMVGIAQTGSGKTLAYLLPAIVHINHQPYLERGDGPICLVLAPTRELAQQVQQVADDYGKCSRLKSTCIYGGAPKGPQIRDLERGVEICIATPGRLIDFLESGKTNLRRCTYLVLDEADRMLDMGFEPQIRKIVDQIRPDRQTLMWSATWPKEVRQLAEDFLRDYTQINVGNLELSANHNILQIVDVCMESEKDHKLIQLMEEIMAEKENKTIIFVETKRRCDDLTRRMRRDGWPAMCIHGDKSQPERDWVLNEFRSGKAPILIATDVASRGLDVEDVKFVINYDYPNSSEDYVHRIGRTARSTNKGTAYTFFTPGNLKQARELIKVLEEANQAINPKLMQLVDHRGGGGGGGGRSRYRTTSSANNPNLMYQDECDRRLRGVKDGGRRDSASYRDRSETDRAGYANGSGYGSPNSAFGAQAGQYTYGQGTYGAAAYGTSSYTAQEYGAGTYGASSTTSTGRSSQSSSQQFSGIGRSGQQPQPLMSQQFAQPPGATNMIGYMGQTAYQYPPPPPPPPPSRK
UniProt P27694: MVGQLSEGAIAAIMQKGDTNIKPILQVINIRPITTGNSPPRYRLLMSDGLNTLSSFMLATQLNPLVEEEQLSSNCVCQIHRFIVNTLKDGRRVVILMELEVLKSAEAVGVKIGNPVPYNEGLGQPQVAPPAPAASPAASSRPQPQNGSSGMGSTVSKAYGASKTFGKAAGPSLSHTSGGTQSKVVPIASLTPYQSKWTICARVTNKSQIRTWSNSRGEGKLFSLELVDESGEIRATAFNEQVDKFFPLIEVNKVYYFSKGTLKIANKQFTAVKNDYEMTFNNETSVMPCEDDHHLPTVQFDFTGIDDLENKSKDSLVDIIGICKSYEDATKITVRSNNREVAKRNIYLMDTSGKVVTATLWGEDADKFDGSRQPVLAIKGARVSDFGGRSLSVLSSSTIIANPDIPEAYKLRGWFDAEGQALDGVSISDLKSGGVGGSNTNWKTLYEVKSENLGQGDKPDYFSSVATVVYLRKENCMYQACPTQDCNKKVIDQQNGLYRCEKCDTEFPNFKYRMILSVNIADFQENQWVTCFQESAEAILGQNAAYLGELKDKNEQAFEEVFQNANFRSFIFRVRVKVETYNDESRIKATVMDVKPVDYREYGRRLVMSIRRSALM
UniProt Q13435: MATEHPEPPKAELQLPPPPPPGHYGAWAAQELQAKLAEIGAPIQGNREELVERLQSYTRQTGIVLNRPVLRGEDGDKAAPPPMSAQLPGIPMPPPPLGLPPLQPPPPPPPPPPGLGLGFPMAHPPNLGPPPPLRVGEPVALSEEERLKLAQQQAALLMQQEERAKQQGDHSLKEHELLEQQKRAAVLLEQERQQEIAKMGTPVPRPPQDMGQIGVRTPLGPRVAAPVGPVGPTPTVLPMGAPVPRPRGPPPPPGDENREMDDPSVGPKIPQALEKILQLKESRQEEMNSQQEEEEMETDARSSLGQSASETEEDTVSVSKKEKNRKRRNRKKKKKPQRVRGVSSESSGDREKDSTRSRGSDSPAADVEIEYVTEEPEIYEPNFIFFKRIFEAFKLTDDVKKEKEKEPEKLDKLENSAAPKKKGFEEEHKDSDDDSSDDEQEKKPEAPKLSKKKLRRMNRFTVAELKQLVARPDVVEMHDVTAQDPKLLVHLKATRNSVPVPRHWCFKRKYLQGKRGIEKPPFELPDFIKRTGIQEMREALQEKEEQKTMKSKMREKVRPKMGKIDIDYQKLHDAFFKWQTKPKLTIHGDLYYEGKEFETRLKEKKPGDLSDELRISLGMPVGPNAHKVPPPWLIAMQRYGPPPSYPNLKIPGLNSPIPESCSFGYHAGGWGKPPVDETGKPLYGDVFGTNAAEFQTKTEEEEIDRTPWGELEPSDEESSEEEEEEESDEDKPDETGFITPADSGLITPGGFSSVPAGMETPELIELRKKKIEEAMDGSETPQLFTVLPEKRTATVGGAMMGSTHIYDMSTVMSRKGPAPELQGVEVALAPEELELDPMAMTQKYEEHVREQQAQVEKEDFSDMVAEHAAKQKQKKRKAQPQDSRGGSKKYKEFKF
UniProt P08621: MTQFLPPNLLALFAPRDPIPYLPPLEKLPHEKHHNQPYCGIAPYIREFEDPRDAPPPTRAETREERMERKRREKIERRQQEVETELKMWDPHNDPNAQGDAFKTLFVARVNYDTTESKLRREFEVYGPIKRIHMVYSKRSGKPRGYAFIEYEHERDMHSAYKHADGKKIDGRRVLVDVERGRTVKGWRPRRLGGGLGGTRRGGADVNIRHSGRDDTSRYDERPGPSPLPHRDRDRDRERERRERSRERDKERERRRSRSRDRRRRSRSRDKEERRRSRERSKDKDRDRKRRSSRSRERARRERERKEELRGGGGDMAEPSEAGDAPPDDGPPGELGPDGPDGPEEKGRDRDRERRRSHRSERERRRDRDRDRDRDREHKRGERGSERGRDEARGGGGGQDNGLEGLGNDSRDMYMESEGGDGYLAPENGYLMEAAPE
UniProt Q96RN5: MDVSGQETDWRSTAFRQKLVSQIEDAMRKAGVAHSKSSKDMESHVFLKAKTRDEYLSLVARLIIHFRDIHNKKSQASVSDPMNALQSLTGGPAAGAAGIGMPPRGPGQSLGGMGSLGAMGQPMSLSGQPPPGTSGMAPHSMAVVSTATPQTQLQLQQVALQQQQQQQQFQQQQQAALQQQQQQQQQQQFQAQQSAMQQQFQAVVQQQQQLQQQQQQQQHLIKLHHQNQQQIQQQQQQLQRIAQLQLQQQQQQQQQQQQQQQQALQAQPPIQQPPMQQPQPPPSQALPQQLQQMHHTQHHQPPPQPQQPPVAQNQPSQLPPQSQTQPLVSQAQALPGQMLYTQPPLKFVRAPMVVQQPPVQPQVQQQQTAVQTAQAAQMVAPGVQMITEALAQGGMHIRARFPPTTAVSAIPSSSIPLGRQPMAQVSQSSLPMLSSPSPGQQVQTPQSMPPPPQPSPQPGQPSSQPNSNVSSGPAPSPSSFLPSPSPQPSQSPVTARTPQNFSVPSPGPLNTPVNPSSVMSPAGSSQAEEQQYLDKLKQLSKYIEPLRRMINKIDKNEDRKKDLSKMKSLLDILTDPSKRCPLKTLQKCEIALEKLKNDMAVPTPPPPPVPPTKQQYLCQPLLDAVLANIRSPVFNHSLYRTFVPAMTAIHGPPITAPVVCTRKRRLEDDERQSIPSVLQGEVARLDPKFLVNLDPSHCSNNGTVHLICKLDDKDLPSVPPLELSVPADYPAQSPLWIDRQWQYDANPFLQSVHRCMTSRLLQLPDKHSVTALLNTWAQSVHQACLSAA

target: Karyopherin beta 1 (human (endogenous in hTERT-RPE1, HeLa, WHCO5, KYSE30)) (UniProt Q14974); test: affinity purification with mass spectrometry; endogenous Kpnβ1 precipitated with 50 µg anti-Karyopherin β1 (H-7) agarose-conjugated antibody from 500 µg lysate of hTERT-RPE1, HeLa, WHCO5 or KYSE30 cells; non-denaturing lysis buffer (1% Triton X-100, 120 mM NaCl, 1 mM CaCl2, 25 mM Tris, pH 7.4); 4 °C overnight; no cross-linking; hits present in all three replicates and absent from the IgG isotype controls

binding, binds:
ATP-dependent RNA helicase DDX3X (from UniProt O00571 1-662)
Actin-like protein 6A (from UniProt O96019 1-429)
BUB3 (from UniProt O43684 1-328)
CCR4-NOT transcription complex subunit 1 (from UniProt A5YKK6 1-2376)
CRM1 (from UniProt O14980 1-1071)
Cleavage and polyadenylation specificity factor subunit 6 (from UniProt Q16630 1-551)
ELAV-like protein 1 (from UniProt Q15717 1-326)
Far upstream element-binding protein 1 (from UniProt Q96AE4 1-644)
Far upstream element-binding protein 3 (from UniProt Q96I24 1-572)
Heterogeneous nuclear ribonucleoprotein A/B (from UniProt Q99729 1-332)
Myosin light polypeptide 6 (from UniProt P60660 1-151)
Probable ATP-dependent RNA helicase DDX5 (from UniProt P17844 1-614)
Probable ATP-dependent RNA helicase DDX17 (from UniProt Q92841 1-729)
Protein transport protein Sec23A (from UniProt Q15436 1-765)
RNA-binding protein EWS (from UniProt Q01844 1-656)
RNA-binding protein FUS (from UniProt P35637 1-526)
Replication protein A 70 kDa DNA-binding subunit (from UniProt P27694 1-616)
SWI/SNF complex subunit SMARCC2 (from UniProt Q8TAQ2 1-1214)
SWI/SNF-related regulator of chromatin, SMARCE1 (from UniProt Q969G3 1-411)
Serine/arginine-rich splicing factor 1 (from UniProt Q07955 1-248)
Small nuclear ribonucleoprotein Sm D2 (from UniProt P62316 1-118)
Small nuclear ribonucleoprotein Sm D3 (from UniProt P62318 1-126)
Splicing factor 3B subunit 2 (from UniProt Q13435 1-895)
Tubulin gamma-1 chain (from UniProt P23258 1-451)
U1 small nuclear ribonucleoprotein 70 kDa (from UniProt P08621 1-437)
U1 small nuclear ribonucleoprotein A (from UniProt P09012 1-282)
mediator of RNA polymerase II transcription subunit 15 (from UniProt Q96RN5 1-788)
tubulin TUBA4A (from UniProt P68366 1-448)
tubulin TUBB6 (from UniProt Q9BUF5 1-446)
B1
B2
B3
B4
B5
B6
B7
